Substitutions are numbered along the chain they refer to. Results are given in words; binding and its absence hold for the method and conditions named. For some of these results: In cells and extracts the contact can be indirect. Some binding calls cover weakened binding; strength is not graded here. Where a sequence is shown, tags or fusion partners need not be part of it.
Columns and labels:
[1] = target: T1, GFP:Repo-Man^IRCE mutant (UniProt Q69YH5); assay: pull-down; GFP-Repo-Man constructs pulled down from transfected HeLa lysate on GFP-TRAP beads (with 20 mM NEM, washed three times), then incubated with purified recombinant His-lamin A in PBS for 2 h at 4°C, washed three times with cold PBS; western blot of unbound and bound fractions with anti-GFP and lamin A antibodies; both purified
T1 sequence: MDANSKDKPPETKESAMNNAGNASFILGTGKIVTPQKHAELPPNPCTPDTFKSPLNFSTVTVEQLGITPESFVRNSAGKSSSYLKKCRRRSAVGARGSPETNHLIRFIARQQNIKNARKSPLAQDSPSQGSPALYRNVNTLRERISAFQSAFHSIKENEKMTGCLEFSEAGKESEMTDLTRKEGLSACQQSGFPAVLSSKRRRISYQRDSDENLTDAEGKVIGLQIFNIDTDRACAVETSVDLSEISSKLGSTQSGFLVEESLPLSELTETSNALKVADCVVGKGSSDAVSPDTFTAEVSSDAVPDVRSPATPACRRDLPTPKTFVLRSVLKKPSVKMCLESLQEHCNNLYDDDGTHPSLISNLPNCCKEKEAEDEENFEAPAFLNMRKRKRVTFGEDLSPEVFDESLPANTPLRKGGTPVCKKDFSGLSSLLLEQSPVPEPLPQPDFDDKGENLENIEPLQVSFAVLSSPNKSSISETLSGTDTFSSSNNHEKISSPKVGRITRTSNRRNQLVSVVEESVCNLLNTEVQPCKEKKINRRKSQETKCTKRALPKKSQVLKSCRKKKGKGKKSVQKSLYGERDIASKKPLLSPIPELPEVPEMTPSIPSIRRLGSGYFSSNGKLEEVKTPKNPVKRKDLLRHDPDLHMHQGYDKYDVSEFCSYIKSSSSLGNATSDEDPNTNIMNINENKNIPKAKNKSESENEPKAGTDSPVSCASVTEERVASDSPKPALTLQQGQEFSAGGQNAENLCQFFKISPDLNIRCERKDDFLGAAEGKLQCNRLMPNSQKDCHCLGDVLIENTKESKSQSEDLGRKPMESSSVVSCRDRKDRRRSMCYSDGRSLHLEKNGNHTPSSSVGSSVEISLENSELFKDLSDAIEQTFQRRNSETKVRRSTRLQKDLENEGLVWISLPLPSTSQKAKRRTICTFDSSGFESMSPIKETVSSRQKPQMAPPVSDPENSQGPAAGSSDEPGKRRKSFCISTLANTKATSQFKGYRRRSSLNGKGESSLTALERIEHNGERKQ

Chains of the proteins cited; added tags and fusions are not shown. Residues count along the entry.
UniProt P02545, residues 1-646: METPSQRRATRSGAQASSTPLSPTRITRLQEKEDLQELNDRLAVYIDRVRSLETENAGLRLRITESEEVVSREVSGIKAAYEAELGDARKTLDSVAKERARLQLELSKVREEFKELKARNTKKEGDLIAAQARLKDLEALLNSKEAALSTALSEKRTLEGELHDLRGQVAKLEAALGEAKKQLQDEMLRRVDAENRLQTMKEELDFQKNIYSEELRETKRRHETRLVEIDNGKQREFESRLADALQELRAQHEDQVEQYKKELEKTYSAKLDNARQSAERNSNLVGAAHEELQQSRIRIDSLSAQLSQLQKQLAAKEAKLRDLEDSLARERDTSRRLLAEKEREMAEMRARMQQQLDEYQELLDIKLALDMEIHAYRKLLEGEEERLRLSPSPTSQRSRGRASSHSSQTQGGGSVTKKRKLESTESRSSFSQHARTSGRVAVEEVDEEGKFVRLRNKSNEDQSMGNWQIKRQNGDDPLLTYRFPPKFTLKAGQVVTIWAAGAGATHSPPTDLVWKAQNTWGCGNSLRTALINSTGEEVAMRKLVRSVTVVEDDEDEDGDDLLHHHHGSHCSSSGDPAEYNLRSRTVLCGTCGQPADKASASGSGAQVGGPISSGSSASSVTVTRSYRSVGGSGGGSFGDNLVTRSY

[2] = target: T2, GFP:Repo-Man^wt (UniProt Q69YH5); assay: as above
T2 sequence: T1 sequence with R762K

[3] = target: T1, GFP:Repo-Man^IRCE mutant; assay: proximity ligation; Duolink PLA in fixed HeLa cells transfected with GFP:Repo-Man wt or IRCE; primary antibodies anti-GFP (mouse) and anti-lamin A/C S22ph (rabbit); PLA signals counted
[4] = target: T2, GFP:Repo-Man^wt; assay: as above

Substance	binding [1]	binding [2]	binding [3]	binding [4]
recombinant human lamin A protein (His-lamin A) (from UniProt P02545 1-646)	binds	binds	–	–
lamin A S22ph (endogenous, HeLa) (from UniProt P02545 1-646)	–	–	binds	binds

Source: PMC9006038
